Data: PubChem BioAssay AID330 (DTP/NCI, 2004)
The list shows only some results of the screen, not a fair sample: it gathers tests that were run many times, whatever their T/C, doses with no T/C, and many T/C values between a quarter and a half above the control. Other doses and runs of a compound stand elsewhere. T/C is the treated group as % of the vehicle group. Some entries give survivors of the animals treated and no T/C: the source holds a T/C of zero for them, seemingly a mark for toxic or unscored doses. Some doses without a T/C left all or most animals alive at the check, yet need not have been tolerated: survival well below the control is almost never listed, so the zero probably covers shortened survival too. Survivors were counted at the toxicity check, usually on the fifth day, unless a day is given; later deaths do not show. Schedule codes are those of the source, taken here to give the interval after Q, in days (D) or hours (H), and the number of doses after X. For survival time, this PubChem deposit counts one and a half times the control or more as active, and values a quarter to a half above the control carry no call in these data; other NCI protocols may use other cut-offs. Some entries were tested several times; the values are given in rising order. Some T/C values are followed by the survivors on the day toxicity was checked, most often the fifth; without a count, all were alive then.

Test system: P388 leukemia ip, CD2F1 mice, survival T/C
Test: NCI In Vivo Anticancer Drug Screen. Data for tumor model P388 Leukemia (intraperitoneal) in CD2F1 (CDF1) mice
Conditions: T/C endpoint: median survival time, higher T/C = longer survival
[1] = dose: 100.0 mg/kg/injection, schedule: Q01DX005 (ip), vehicle: Klucel (hydroxypropylcellulose) (HPC)
[2] = dose: 200.0 mg/kg/injection, schedule: Q01DX005 (ip), vehicle: Klucel (hydroxypropylcellulose) (HPC)
[3] = dose: 100.0 mg/kg/injection, schedule: Q01DX009 (ip), vehicle: Klucel (hydroxypropylcellulose) (HPC)
[4] = dose: 200.0 mg/kg/injection, schedule: Q01DX009 (ip), vehicle: Klucel (hydroxypropylcellulose) (HPC)
[5] = dose: 50.0 mg/kg/injection, schedule: Q01DX009 (ip), vehicle: saline
[6] = dose: 200.0 mg/kg/injection, schedule: Q01DX009 (ip), vehicle: saline with Tween-80
[7] = dose: 240.0 mg/kg/injection, schedule: Q01DX005 (ip), vehicle: Klucel (hydroxypropylcellulose) (HPC)

## CCC(=O)[O][Bi]([c]1ccccc1)[c]1ccccc1
[1]
  survivor count: 0 of 6
[2]
  T/C: 131 % of control [4 of 6 alive]
  survivor count: 0 of 6

## O=c1[nH]c(=S)[nH]c2c(=O)[nH]c(=S)[nH]c12
[3]
  survivor count: 6 of 6
[4]
  survivor count: 5 of 6

## CS(=O)(=O)C(=S)Sc1ccccc1
dose: 100.0 mg/kg/injection, schedule: Q01DX001 (ip), vehicle: saline with Tween-80
  survivor count: 3 of 6

## O=Cc1ccc([N+](=O)[O-])s1
dose: 6.25 mg/kg/injection, schedule: Q01DX009 (ip), vehicle: saline
  T/C: 107, 113, 123, 184 % of control
dose: 12.5 mg/kg/injection, schedule: Q01DX009 (ip), vehicle: saline
  T/C: 116, 124, 138, 205 % of control
dose: 25.0 mg/kg/injection, schedule: Q01DX009 (ip), vehicle: saline
  T/C: 131, 140, 147, 236 % of control
[5]
  T/C: 130 and 131 % of control
dose: 100.0 mg/kg/injection, schedule: Q01DX009 (ip), vehicle: saline with Tween-80
  survivor count: 0 of 6
[6]
  survivor count: 0 of 6
dose: 400.0 mg/kg/injection, schedule: Q01DX009 (ip), vehicle: saline with Tween-80
  survivor count: 0 of 6

## CC(=O)c1cc[c]([Sn]([CH3])([Cl])[c]2ccccc2)cc1 (stereo not drawn)
dose: 30.0 mg/kg/injection, schedule: Q01DX005 (ip), vehicle: Klucel (hydroxypropylcellulose) (HPC)
  survivor count: 0 of 6
dose: 120.0 mg/kg/injection, schedule: Q01DX005 (ip), vehicle: Klucel (hydroxypropylcellulose) (HPC)
  survivor count: 0 of 6
[7]
  survivor count: 0 of 6

## c1ccc2c(c1)CCc1ccccc1C2NC1=NCCSC1
[6]
  survivor count: 0 of 6

## CCN=C(CC(=O)C12CC3CC(CC(C3)C1)C2)N(CC)CC
dose: 100.0 mg/kg/injection, schedule: Q01DX009 (ip), vehicle: saline
  survivor count: 3 of 6
dose: 200.0 mg/kg/injection, schedule: Q01DX009 (ip), vehicle: saline
  survivor count: 0 of 6

## CC(CCc1ccc2c(c1)c(=N)c1ccc(N)cc1n2O)CC(C)(C)C (stereo not drawn)
dose: 25.0 mg/kg/injection, schedule: Q04DX002 (ip), vehicle: distilled water + Tween-80
  survivor count: 4 of 5
dose: 50.0 mg/kg/injection, schedule: Q04DX002 (ip), vehicle: distilled water + Tween-80
  survivor count: 1 of 5
dose: 100.0 mg/kg/injection, schedule: Q04DX002 (ip), vehicle: distilled water + Tween-80
  survivor count: 0 of 5
dose: 200.0 mg/kg/injection, schedule: Q04DX002 (ip), vehicle: distilled water + Tween-80
  survivor count: 0 of 5
dose: 400.0 mg/kg/injection, schedule: Q04DX002 (ip), vehicle: distilled water + Tween-80
  survivor count: 0 of 5

## O=S(=O)(CS(=O)(=O)c1ccc(Cl)c(Cl)c1)c1ccc(Cl)c(Cl)c1
dose: 240.0 mg/kg/injection, schedule: Q01DX005 (ip), vehicle: Klucel + Tween-80
  survivor count: 4 of 6

## Cn1nc[n+](C)n1
[5]
  survivor count: 5 of 6

## NC(=O)c1nc2c(N)nc(-c3ccccc3)nc2nc1N
dose: 75.0 mg/kg/injection, schedule: Q01DX009 (ip), vehicle: saline with Tween-80
  survivor count: 6 of 6

## CCC1=CCC2C(=O)C3CC(CC)=CCC3C(=O)C2C1 (stereo not drawn)
[1]
  survivor count: 5 of 5
[2]
  survivor count: 5 of 5

## CCCCCCCCCCCCCC(C)N1CCCN=C1C (stereo not drawn)
dose: 50.0 mg/kg/injection, schedule: Q01DX009 (ip), vehicle: Klucel (hydroxypropylcellulose) (HPC)
  survivor count: 0 of 6
[3]
  survivor count: 0 of 6
[4]
  survivor count: 0 of 6

## CC(C)(C)N(Cc1ccccc1)C(O)Cc1c(-c2ccccc2)c(-c2ccccc2)c2n1CCC2 (stereo not drawn)
[7]
  survivor count: 6 of 6

## CC(C)=CCC(/C=N/N=C(N)N)C(C)C (stereo not drawn)
dose: 50.0 mg/kg/injection, schedule: Q01DX005 (ip), vehicle: saline
  survivor count: 5 of 6
dose: 100.0 mg/kg/injection, schedule: Q01DX005 (ip), vehicle: saline
  survivor count: 0 of 6
dose: 200.0 mg/kg/injection, schedule: Q01DX005 (ip), vehicle: saline
  survivor count: 0 of 6

## O=C(NC1c2ccccc2CCc2ccccc21)C(F)(F)F
dose: 50.0 mg/kg/injection, schedule: Q01DX009 (ip), vehicle: saline with Tween-80
  survivor count: 6 of 6

## O=C1C(c2ccccc2)C2NC(C1c1ccccc1)C([N+](=O)[O-])C=C2[N+](=O)[O-] (stereo not drawn)
dose: 12.5 mg/kg/injection, schedule: Q01DX001 (ip), vehicle: Klucel (hydroxypropylcellulose) (HPC)
  survivor count: 1 of 6
